Test results published in paper PMC7819943, “Rice protein-binding microarrays: a tool to detect cis-acting elements near promoter regions in rice”.
Some of the results follow.

Each sequence was assayed against T1, OsSMF1 (Oryza sativa, UniProt Q6ZLB0 1-436) (assay: protein-binding microarray (RPBM); PBS, 2% BSA, 51.3 ng/ul salmon testes DNA, 50 uM zinc acetate, 200 nM TF, 25 C, 1 h; high values mean tight binding). Settings: protein: recombinant; tags: N-terminal polyhistidine and DsRed monomer fusion (pET32a); chain copies: 2; label: CyDye5-dUTP incorporated in the synthesized complementary strand; 3' TTTTT single-stranded linker to array surface; dsDNA, one strand shown.
T1 sequence: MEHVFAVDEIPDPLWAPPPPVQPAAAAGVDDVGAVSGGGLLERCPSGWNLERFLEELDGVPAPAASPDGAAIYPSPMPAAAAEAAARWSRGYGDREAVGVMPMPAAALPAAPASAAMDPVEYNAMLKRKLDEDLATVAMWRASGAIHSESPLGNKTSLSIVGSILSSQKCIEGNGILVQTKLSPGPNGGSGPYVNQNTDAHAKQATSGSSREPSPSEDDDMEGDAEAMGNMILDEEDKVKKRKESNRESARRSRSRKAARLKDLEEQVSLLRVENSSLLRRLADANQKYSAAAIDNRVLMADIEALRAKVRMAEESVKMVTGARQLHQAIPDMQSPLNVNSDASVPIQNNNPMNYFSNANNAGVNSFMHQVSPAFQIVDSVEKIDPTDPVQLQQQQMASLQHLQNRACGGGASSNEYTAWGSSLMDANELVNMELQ
Method in brief: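 Using Ni–NTA, transcription factors fused N-terminally to polyhistidine and DsRed were purified after expression in E. coli BL21-CodonPlus. These were incubated at 200 nM with a blocked, double-stranded custom Agilent array for 1 h at 25 °C in a buffer containing 50 µM zinc acetate, and the array was washed. The binding signal is per-feature fluorescence intensity (arbitrary units) on an Axon 4000B scanner.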
With “ATGGGCCGAAAGCCCAGCTCCACTGGGCCGCACGGCCGGCCGGAGTCACCTAGTGCAG” the binding signal was 18000 fluorescence intensity (a.u.).
With “AAAATTGTGATGGCCCAGCGAGGCAGAGCAACCTGTTGTGCGGAGTCACCTAGTGCAG” the binding signal was 4000 fluorescence intensity (a.u.).
With “CACCGGCCGGCCTGCAGCCGCAGCGCTGCCACGTGGCCGGCGGAGTCACCTAGTGCAG” the binding signal was 25400 fluorescence intensity (a.u.).
For “AACAAGTCCTTAGGTTACAGTTTGATGACAAACCCTAATTCGGAGTCACCTAGTGCAG”, the binding signal was 3800 fluorescence intensity (a.u.).
“GACCGAAATACGCACGCATTACACGGATGCAACCCAAACCCGGAGTCACCTAGTGCAG” was tested, and the binding signal was 3200 fluorescence intensity (a.u.).
“GCCATCCCCAACACTCGTTGCTGCAGCTACCAACCTCCTCCGGAGTCACCTAGTGCAG” was tested, and the binding signal was 3510 fluorescence intensity (a.u.).
With “GTGATGATTTTGTCATAGCTCATCAGTGTAGTATATGCCTCGGAGTCACCTAGTGCAG” the binding signal was 3700 fluorescence intensity (a.u.).
“CCATGTTCTTATTACGTGGACACGTTGAGTCTGTGAAACTCGGAGTCACCTAGTGCAG” was tested, and the binding signal was 5480 fluorescence intensity (a.u.).
With “GTACACCAGTAGCTTCAACCCAGATCATCTGGTCCCTCTGCGGAGTCACCTAGTGCAG” the binding signal was 3360 fluorescence intensity (a.u.).
For “TTCCCTCTCATCAGGATGGCGAGCTGAGCTGAGCTGAGCTCGGAGTCACCTAGTGCAG”, the binding signal was 26100 fluorescence intensity (a.u.).
“AGTGTAGGTCGTCATGACAGGATCCTCTGCCCCTTTTACTCGGAGTCACCTAGTGCAG” was tested, and the binding signal was 3430 fluorescence intensity (a.u.).
“CAACAACAGTGACCCTCGAAACTACTACTCTGATCTCAGTCGGAGTCACCTAGTGCAG” was tested, and the binding signal was 27400 fluorescence intensity (a.u.).
In the case of “CTGACTGACTGGACCAGGTCACCCGCGAGGCCGCGACGTGCGGAGTCACCTAGTGCAG”, the binding signal is reported as 4230 fluorescence intensity (a.u.).
For “AATAATGAATAGCGACTTTTCCGACCTGTTTTGGCGCATGCGGAGTCACCTAGTGCAG”, the binding signal was 3490 fluorescence intensity (a.u.).
In the case of “ATACCGTGATTGGGATTACCTGTGACCTTGCCTATTTGACCGGAGTCACCTAGTGCAG”, the binding signal is reported as 3220 fluorescence intensity (a.u.).
With “AGTACTACGCATCACATCCCATGATCCCGAGAGGCTCATGCGGAGTCACCTAGTGCAG” the binding signal was 3200 fluorescence intensity (a.u.).
In the case of “TATCCAAACAAAGTCCATGTTGGATGGATCCAGATCGCCACGGAGTCACCTAGTGCAG”, the binding signal is reported as 13800 fluorescence intensity (a.u.).
With “TATTACAAGTGACTTTGCCAGGTCATGGATAAGGTCATGCCGGAGTCACCTAGTGCAG” the binding signal was 10600 fluorescence intensity (a.u.).
In the case of “TAGTTAAATATCGCTTGACACTTTTACTATTCGACACATACGGAGTCACCTAGTGCAG”, the binding signal is reported as 3320 fluorescence intensity (a.u.).
In the case of “AACATCGTACATAAGTGAGTAAGTGACTGACCACCACCCACGGAGTCACCTAGTGCAG”, the binding signal is reported as 4900 fluorescence intensity (a.u.).
With “AAGTCGGGGTGAGTGAGTCCATGGCCCATGGACCGGTGCCCGGAGTCACCTAGTGCAG” the binding signal was 31600 fluorescence intensity (a.u.).
For “AATATTGTGTGTTGTTGTGTTGTCATCTGATATATTTTAGCGGAGTCACCTAGTGCAG”, the binding signal was 6470 fluorescence intensity (a.u.).
With “CCGCGCCGTCCCTCCTGACGCGGCGTCTCGCCGCCGCCGCCGGAGTCACCTAGTGCAG” the binding signal was 3780 fluorescence intensity (a.u.).
For “CGTAGTGAAGGGCTGATGTGGCATTTGACATGTCATCCATCGGAGTCACCTAGTGCAG”, the binding signal was 25300 fluorescence intensity (a.u.).
“GCTCATCTGAGCCAGATGTTCGATCGGCGCCAAGCAGGGGCGGAGTCACCTAGTGCAG” was tested, and the binding signal was 3570 fluorescence intensity (a.u.).
For “GGAGAGGGAGCGGGAGAGGGAGGATTGGAGGATGTGGGGACGGAGTCACCTAGTGCAG”, the binding signal was 15400 fluorescence intensity (a.u.).
“TCTAATCCTTACGAGTTTCACTGGGAGTGTTTGTTTCTCGCGGAGTCACCTAGTGCAG” was tested, and the binding signal was 33700 fluorescence intensity (a.u.).
In the case of “CTCCCAATCCACGCGTCCCCTTTTCCCGTCCCTTCCCTTCCGGAGTCACCTAGTGCAG”, the binding signal is reported as 4010 fluorescence intensity (a.u.).
For “TAGAGATTTTGTCAGAATTTAATTAAATTATGTGAAATTTCGGAGTCACCTAGTGCAG”, the binding signal was 19900 fluorescence intensity (a.u.).
“TCCTAGTCCTAAGCATGATGTATCATGTAATGTTGAATTGCGGAGTCACCTAGTGCAG” was tested, and the binding signal was 3440 fluorescence intensity (a.u.).
With “ATACTATTGAAAATCCACCTATATGTACGTAATATTCGTGCGGAGTCACCTAGTGCAG” the binding signal was 3760 fluorescence intensity (a.u.).
For “ACTACTGTCACCCCGACTGAGTCAGCATGGAACCCAGATCCGGAGTCACCTAGTGCAG”, the binding signal was 7180 fluorescence intensity (a.u.).
“TGCCTCACTTAATATGTGGCAAATTATGATATATTGTGGTCGGAGTCACCTAGTGCAG” was tested, and the binding signal was 3380 fluorescence intensity (a.u.).
In the case of “TACCGCCTCATTTTGTGTGTTTCGGTGTGACGCAAGAGGCCGGAGTCACCTAGTGCAG”, the binding signal is reported as 3720 fluorescence intensity (a.u.).
In the case of “AATCTGCACCGTCCGTCGAGCCTGCGGTCGTCACAGGCCGCGGAGTCACCTAGTGCAG”, the binding signal is reported as 4430 fluorescence intensity (a.u.).
“GTCTAGATTCGTTGTATTAGGATGTGTCACATCCAATACTCGGAGTCACCTAGTGCAG” was tested, and the binding signal was 4230 fluorescence intensity (a.u.).
In the case of “CCTTGCTTGCTCATGTCATCCACCTGTGGTGGTTCTGGTGCGGAGTCACCTAGTGCAG”, the binding signal is reported as 3970 fluorescence intensity (a.u.).
“CCACCCACCGCTCGCATCCACAGCTGCTGATTCGTAGGAGCGGAGTCACCTAGTGCAG” was tested, and the binding signal was 30400 fluorescence intensity (a.u.).
In the case of “GAATTGAGCTTGACTGCCTGAGTCAACAAGGCAAGGCATCCGGAGTCACCTAGTGCAG”, the binding signal is reported as 4800 fluorescence intensity (a.u.).
“CGACACAACACACAGACACACCCACGGAATTCCGCGAATCCGGAGTCACCTAGTGCAG” was tested, and the binding signal was 4520 fluorescence intensity (a.u.).
With “TTCTCTCCGTCTTCCTCCAGCACTGAATTTGTCGCTGGCGCGGAGTCACCTAGTGCAG” the binding signal was 64900 fluorescence intensity (a.u.).
With “CCTGTTGCACACCACACCTACCATGAGTTCCTTTCAATCACGGAGTCACCTAGTGCAG” the binding signal was 26900 fluorescence intensity (a.u.).
